Results are given in words; binding and its absence hold for the method and conditions named. In cells and extracts the contact can be indirect. A yes stands for co-enrichment or nearness to the bait. Other partners may have been found.
B1: TRA2B (protein, UniProt P62995 1-288)
chain: MSDSGEQNYGERESRSASRSGSAHGSGKSARHTPARSRSKEDSRRSRSKSRSRSESRSRSRRSSRRHYTRSRSRSRSHRRSRSRSYSRDYRRRHSHSHSPMSTRRRHVGNRANPDPNCCLGVFGLSLYTTERDLREVFSKYGPIADVSIVYDQQSRRSRGFAFVYFENVDDAKEAKERANGMELDGRRIRVDFSITKRPHTPTPGIYMGRPTYGSSRRRDYYDRGYDRGYDDRDYYSRSYRGGGGGGGGWRAAQDRDQIYRRRSPSPYYSRGGYRSRSRSRSYSPRRY
B2: SRSF7 (protein, UniProt Q16629 1-238)
chain: MSRYGRYGGETKVYVGNLGTGAGKGELERAFSYYGPLRTVWIARNPPGFAFVEFEDPRDAEDAVRGLDGKVICGSRVRVELSTGMPRRSRFDRPPARRPFDPNDRCYECGEKGHYAYDCHRYSRRRRSRSRSRSHSRSRGRRYSRSRSRSRGRRSRSASPRRSRSISLRRSRSASLRRSRSGSIKGSRYFQSPSRSRSRSRSISRPRSSRSKSRSPSPKRSRSPSGSPRRSASPERMD
B3: ILF3 (protein, UniProt Q12906 1-894)
chain: MRPMRIFVNDDRHVMAKHSSVYPTQEELEAVQNMVSHTERALKAVSDWIDEQEKGSSEQAESDNMDVPPEDDSKEGAGEQKTEHMTRTLRGVMRVGLVAKGLLLKGDLDLELVLLCKEKPTTALLDKVADNLAIQLAAVTEDKYEILQSVDDAAIVIKNTKEPPLSLTIHLTSPVVREEMEKVLAGETLSVNDPPDVLDRQKCLAALASLRHAKWFQARANGLKSCVIVIRVLRDLCTRVPTWGPLRGWPLELLCEKSIGTANRPMGAGEALRRVLECLASGIVMPDGSGIYDPCEKEATDAIGHLDRQQREDITQSAQHALRLAAFGQLHKVLGMDPLPSKMPKKPKNENPVDYTVQIPPSTTYAITPMKRPMEEDGEEKSPSKKKKKIQKKEEKAEPPQAMNALMRLNQLKPGLQYKLVSQTGPVHAPIFTMSVEVDGNSFEASGPSKKTAKLHVAVKVLQDMGLPTGAEGRDSSKGEDSAEETEAKPAVVAPAPVVEAVSTPSAAFPSDATAEQGPILTKHGKNPVMELNEKRRGLKYELISETGGSHDKRFVMEVEVDGQKFQGAGSNKKVAKAYAALAALEKLFPDTPLALDANKKKRAPVPVRGGPKFAAKPHNPGFGMGGPMHNEVPPPPNLRGRGRGGSIRGRGRGRGFGGANHGGYMNAGAGYGSYGYGGNSATAGYSQFYSNGGHSGNASGGGGGGGGGSSGYGSYYQGDNYNSPVPPKHAGKKQPHGGQQKPSYGSGYQSHQGQQQSYNQSPYSNYGPPQGKQKGYNHGQGSYSYSNSYNSPGGGGGSDYNYESKFNYSGSGGRSGGNSYGSGGASYNPGSHGGYGGGSGGGSSYQGKQGGYSQSNYNSPGSGQNYSGPPSSYQSSQGGYGRNADHSMNYQYR
B4: ZC3H18 (protein, UniProt Q86VM9 1-953)
chain: MDVAESPERDPHSPEDEEQPQGLSDDDILRDSGSDQDLDGAGVRASDLEDEESAARGPSQEEEDNHSDEEDRASEPKSQDQDSEVNELSRGPTSSPCEEEGDEGEEDRTSDLRDEASSVTRELDEHELDYDEEVPEEPAPAVQEDEAEKAGAEDDEEKGEGTPREEGKAGVQSVGEKESLEAAKEKKKEDDDGEIDDGEIDDDDLEEGEVKDPSDRKVRPRPTCRFFMKGNCTWGMNCRFIHPGVNDKGNYSLITKADPFPPNGAPPLGPHPLMPANPWGGPVVDEILPPPPPEPPTESAWERGLRHAKEVLKKATIRKEQEPDFEEKRFTVTIGEDEREFDKENEVFRDWNSRIPRDVRDTVLEPYADPYYDYEIERFWRGGQYENFRVQYTETEPYHNYRERERERERENRQRERERERERDRERERRQRERERERERERDKERQRRKEEWERERAKRDEKDRQHRDRDREKEREKEKGKPKPRSPQPPSRQAEPPKKEAATTGPQVKRADEWKDPWRRSKSPKKKLGVSVSPSRARRRRKTSASSASASNSSRSSSRSSSYSGSGSSRSRSRSSSYSSYSSRSSRHSSFSGSRSRSRSFSSSPSPSPTPSPHRPSIRTKGEPAPPPGKAGEKSVKKPAPPPAPPQATKTTAPVPEPTKPGDPREARRKERPARTPPRRRTLSGSGSGSGSSYSGSSSRSRSLSVSSVSSVSSATSSSSSAHSVDSEDMYADLASPVSSASSRSPAPAQTRKEKGKSKKEDGVKEEKRKRDSSTQPPKSAKPPAGGKSSQQPSTPQQAPPGQPQQGTFVAHKEIKLTLLNKAADKGSRKRYEPSDKDRQSPPPAKRPNTSPDRGSRDRKSGGRLGSPKPERQRGQNSKAPAAPADRKRQLSPQSKSSSKVTSVPGKASDPGAASTKSGKASTLSRREELLKQLKAVEDAIARKRAKIPGKA

Chains of the proteins cited; added tags and fusions are not shown.
UniProt P09429: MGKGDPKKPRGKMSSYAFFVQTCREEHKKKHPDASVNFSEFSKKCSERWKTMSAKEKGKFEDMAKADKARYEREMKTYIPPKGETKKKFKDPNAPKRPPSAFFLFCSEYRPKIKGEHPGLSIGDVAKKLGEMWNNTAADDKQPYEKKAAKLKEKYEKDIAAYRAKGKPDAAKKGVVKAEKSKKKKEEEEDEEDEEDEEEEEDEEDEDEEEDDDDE
UniProt P26599: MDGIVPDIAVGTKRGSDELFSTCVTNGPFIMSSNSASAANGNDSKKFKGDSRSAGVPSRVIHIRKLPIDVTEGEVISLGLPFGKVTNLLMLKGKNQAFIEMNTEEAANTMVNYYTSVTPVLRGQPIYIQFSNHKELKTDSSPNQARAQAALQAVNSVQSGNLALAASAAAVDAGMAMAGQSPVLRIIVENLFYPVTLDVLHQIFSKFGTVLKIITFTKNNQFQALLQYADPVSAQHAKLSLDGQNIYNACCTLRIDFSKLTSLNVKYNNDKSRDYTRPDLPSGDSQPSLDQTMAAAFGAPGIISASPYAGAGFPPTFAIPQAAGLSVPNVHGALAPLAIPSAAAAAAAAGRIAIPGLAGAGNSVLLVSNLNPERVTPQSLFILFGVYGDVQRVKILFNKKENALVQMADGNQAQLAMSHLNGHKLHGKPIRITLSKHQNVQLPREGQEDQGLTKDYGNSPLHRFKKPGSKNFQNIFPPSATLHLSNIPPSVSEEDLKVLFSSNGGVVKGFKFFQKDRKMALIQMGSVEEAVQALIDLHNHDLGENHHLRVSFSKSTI
UniProt P38159: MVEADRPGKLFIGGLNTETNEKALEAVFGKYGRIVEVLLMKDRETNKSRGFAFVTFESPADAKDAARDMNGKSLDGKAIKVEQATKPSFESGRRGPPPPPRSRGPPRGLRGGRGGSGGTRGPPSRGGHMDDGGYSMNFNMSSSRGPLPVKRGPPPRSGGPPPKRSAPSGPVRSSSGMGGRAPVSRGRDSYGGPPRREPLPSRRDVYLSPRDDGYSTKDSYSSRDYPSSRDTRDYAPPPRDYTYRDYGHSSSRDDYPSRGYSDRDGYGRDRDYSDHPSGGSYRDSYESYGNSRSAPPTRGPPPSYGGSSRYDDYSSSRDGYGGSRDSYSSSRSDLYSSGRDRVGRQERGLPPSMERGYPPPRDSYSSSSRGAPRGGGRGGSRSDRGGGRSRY
UniProt Q9NYF8: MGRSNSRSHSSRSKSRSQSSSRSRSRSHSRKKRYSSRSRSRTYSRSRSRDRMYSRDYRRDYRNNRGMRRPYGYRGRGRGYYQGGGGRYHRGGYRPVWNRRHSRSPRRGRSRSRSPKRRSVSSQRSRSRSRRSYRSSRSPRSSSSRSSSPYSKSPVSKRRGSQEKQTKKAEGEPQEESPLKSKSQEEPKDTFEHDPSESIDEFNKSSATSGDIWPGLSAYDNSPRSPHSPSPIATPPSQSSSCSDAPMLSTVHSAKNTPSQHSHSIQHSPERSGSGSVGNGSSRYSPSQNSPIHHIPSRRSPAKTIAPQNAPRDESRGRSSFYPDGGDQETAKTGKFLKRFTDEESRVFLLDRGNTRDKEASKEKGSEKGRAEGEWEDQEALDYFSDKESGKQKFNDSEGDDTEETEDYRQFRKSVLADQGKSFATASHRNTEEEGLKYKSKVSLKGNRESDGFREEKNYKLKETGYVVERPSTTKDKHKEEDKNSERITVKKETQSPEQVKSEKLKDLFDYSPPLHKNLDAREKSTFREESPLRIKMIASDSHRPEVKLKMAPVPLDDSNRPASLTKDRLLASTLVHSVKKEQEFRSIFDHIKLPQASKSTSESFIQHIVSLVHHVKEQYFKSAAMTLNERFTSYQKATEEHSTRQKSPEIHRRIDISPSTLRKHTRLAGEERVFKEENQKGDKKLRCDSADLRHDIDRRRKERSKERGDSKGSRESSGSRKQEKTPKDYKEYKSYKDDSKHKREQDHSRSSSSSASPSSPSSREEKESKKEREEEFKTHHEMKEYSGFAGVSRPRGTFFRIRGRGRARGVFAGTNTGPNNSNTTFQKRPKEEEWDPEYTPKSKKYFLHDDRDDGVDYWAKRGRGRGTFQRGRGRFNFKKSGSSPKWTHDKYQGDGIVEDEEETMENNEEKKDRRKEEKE

Target: high-mobility group box 1 (HMGB1) protein (human (endogenous in IMR90)) (UniProt P09429)
Test: affinity purification with mass spectrometry; anti-HMGB1 (PCRP-HMGB1-4F10, DSHB) on protein-G magnetic beads; lysate of proliferating IMR90 (20 mM Tris-HCl pH 8.0, 1% NP-40, 150 mM NaCl, 2 mM EDTA), sonicated, RNase A treated; 4°C overnight; three replicates

binding, binds:
PTBP1 (from UniProt P26599 1-557)
RBMX (from UniProt P38159 1-391)
BCLAF1 (from UniProt Q9NYF8 1-920)
B1
B2
B3
B4
